These are yes or no findings as the source states them, for the method shown. Some binding calls cover weakened binding; strength is not graded here.
Target: T1, Rbg1-TAP (S. cerevisiae (endogenous in BY4741)) (UniProt P39729)
T1 sequence: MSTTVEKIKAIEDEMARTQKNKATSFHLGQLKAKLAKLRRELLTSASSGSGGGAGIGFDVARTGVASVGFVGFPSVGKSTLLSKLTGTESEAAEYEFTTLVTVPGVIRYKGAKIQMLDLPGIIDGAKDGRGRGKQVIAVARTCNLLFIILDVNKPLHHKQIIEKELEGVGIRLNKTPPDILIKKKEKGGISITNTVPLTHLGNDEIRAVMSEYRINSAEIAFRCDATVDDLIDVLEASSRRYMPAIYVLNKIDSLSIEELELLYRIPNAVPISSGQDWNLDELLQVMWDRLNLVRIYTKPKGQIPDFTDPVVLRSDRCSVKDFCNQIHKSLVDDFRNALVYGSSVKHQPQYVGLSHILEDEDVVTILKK
Experiment: native gel or EMSA; Native-PAGE (NativePAGE 4-16% Bis-Tris, 1% digitonin lysate, 0.25% G-250, room temperature) of yeast lysates, immunoblotting with PAP against Rbg1-TAP; wild-type and tma46 deletion cells, and wild-type cells with vector or multicopy RBG1 or TMA46

B1: Tma46 (protein, UniProt Q12000 1-345)
chain: MPPKKGKQAQAAGKKKDNVDKTFGMKNKNRSTKVQKYIKQVQSQSDPKKEEMRLKKLEEKKRREAEEAERRALFNPVADQRVRAGVDPKSMVCALFKLGNCNKGAKCKFSHDLNVGRRMEKKDLYQDTRSEKENDTMDNWDEEKLRKVILSKHGNPKTTTDKVCKYFIEAVENGKYGWFWICPNGGDKCMYRHSLPEGFVLKTNEQKRLERESLEKQPKITLEEFIETERGKLDKSKLTPITIANFAQWKKDHVIAKINAEKKLSSKRKPTGREIILKMSAENKSFETDNADMPDDVTQGSAWDLTEFTDALKKADHQDDGGIKDYGDGSNPTFDIKKANSATLA
Question: For B1, which binding is on record?
Answer: binds

— PMC5266272
